Results as given in the supplement of paper PMC7830784.
Counter-ions that a name gives are not always drawn. The list shows a part of the results. Repeats in this data set agree poorly, so a single value says little.

The compounds below were run on Brugia pahangi adult female (assay: motility inhibition on day 3 relative to DMSO vehicle; higher = more active). Settings: 10 µM; 3 days.
With `CCc1nn(CCCN2CCN(c3cccc(Cl)c3)CC2)c(=O)n1CCOc1ccccc1` [nefazodone hydrochloride] the “motility inhibition on day 3” value was 28%. `CC(=O)Oc1ccc(C(c2ccc(OC(C)=O)cc2)c2ccccn2)cc1` [bisacodyl] was tested, and the “motility inhibition on day 3” value was under 0%. In the case of `CCOC(=O)CC(=O)N1CCSC1COc1ccccc1OC` (stereo not given) [moguisteine], the “motility inhibition on day 3” value is reported as 6%. `C[C@@H]1CN(c2c(F)c(F)c3c(=O)c(C(=O)O)cn(C4CC4)c3c2F)C[C@H](C)N1` [orbifloxacin] was tested, and the “motility inhibition on day 3” value was 2.17%. For `CCC(C)(C)C(=O)O[C@H]1C[C@@H](C)C=C2C=C[C@H](C)[C@H](CC[C@@H]3C[C@@H](O)CC(=O)O3)[C@H]21` [simvastatin], the “motility inhibition on day 3” value was 1.22%. In the case of `CCCc1nn(C)c2c(=O)[nH]c(-c3cc(S(=O)(=O)N4CCN(C)CC4)ccc3OCC)nc12` [sildenafil], the “motility inhibition on day 3” value is reported as 0.685%. In the case of `NNC(=O)c1ccncc1.Nc1ccc(C(=O)O)c(O)c1` [pasiniazid], the “motility inhibition on day 3” value is reported as 13.3%. `CC(O)(CC(=O)O)CC(=O)O` [meglutol] was tested, and the “motility inhibition on day 3” value was 33%. In the case of `O=[N+]([O-])c1ccc(O)c2ncccc12` [nitroxoline], the “motility inhibition on day 3” value is reported as 75.1%. With `O=C(O[C@@H]1C[C@@H]2C[C@H]3C[C@H](C1)N2CC3=O)c1c[nH]c2ccccc12` [Dolasetron] the “motility inhibition on day 3” value was 11%. For `COc1ccc2cc1Oc1ccc(cc1)C[C@H]1c3c(cc4c(c3Oc3cc5c(cc3OC)CCN(C)[C@@H]5C2)OCO4)CCN1C` [cepharanthine], the “motility inhibition on day 3” value was 0.433%. With `CC(O)CC(C)(C)O` (stereo not given) [hexylene glycol] the “motility inhibition on day 3” value was 18.5%. In the case of `CCOC(=O)c1ccc(O)cc1` [ethyl paraben], the “motility inhibition on day 3” value is reported as 6.94%. For `Cn1c(=O)c2c(ncn2C)n(C)c1=O` [Caffeine], the “motility inhibition on day 3” value was 24.2%. `O=C([O-])C(O)[C@H](O)[C@@H](O)[C@H](O)[C@H](O)CO.O=C([O-])C(O)[C@H](O)[C@@H](O)[C@H](O)[C@H](O)CO.[Ca+2]` (stereo not given in full) [calcium gluceptate] was tested, and the “motility inhibition on day 3” value was 4.21%. For `Cc1c(OCC(F)(F)F)ccnc1C[S+]([O-])c1nc2ccccc2[nH]1` (stereo not given) [lansoprazole], the “motility inhibition on day 3” value was 35.5%. For `CC(C)(C)NCC(O)c1ccc(O)c(CO)c1` (stereo not given) [Albuterol hemisulfate], the “motility inhibition on day 3” value was 10.1%. `Cc1onc(-c2ccccc2)c1C(=O)N[C@@H]1C(=O)N2[C@@H]1SC(C)(C)[C@@H]2C(=O)O` [oxacillin sodium] was tested, and the “motility inhibition on day 3” value was under 0%. `CCCC(CCC)C(=O)O` [Valproic acid sodium] was tested, and the “motility inhibition on day 3” value was 13.2%. For `CN[C@@H]1CCc2[nH]c3ccc(C(N)=O)cc3c2C1` [Frovatriptan Succinate Monohydrate], the “motility inhibition on day 3” value was 0.732%. With `CNC(=O)c1c(I)c(NC(C)=O)c(I)c(C(=O)O)c1I` [iothalamic acid] the “motility inhibition on day 3” value was 18.3%. For `COC1=CC(=O)C[C@@H](C)[C@]12Oc1c(Cl)c(OC)cc(OC)c1C2=O` [griseofulvin], the “motility inhibition on day 3” value was 0.626%. For `CCC(=O)NCC[C@@H]1CCc2ccc3c(c21)CCO3` [ramelteon], the “motility inhibition on day 3” value was 4.46%. For `CN(C)CCC(c1ccc(Cl)cc1)c1ccccn1` (stereo not given) [chlorpheniramine maleate], the “motility inhibition on day 3” value was under 0%. For `COc1cc(N)c(Cl)cc1C(=O)NC1CCN(CCCOc2ccc(F)cc2)CC1OC` (stereo not given) [Cisapride monohydrate], the “motility inhibition on day 3” value was under 0%. For `OCC(O)CN1CCN(c2ccccc2)CC1` (stereo not given) [dropropizine], the “motility inhibition on day 3” value was 11.9%. For `CCn1cc(C(=O)O)c(=O)c2cc(F)c(N3CCNCC3)cc21` [norfloxacin], the “motility inhibition on day 3” value was 3.36%. In the case of `NCC1OC(OC2C(N)CC(N)C(OC3OC(CO)C(O)C(N)C3O)C2O)C(N)C(O)C1O` (stereo not given) [becanamycin sulfate], the “motility inhibition on day 3” value is reported as 9.75%. For `CC1(C)S[C@@H]2[C@H](N3C(=O)[C@@H](c4ccccc4)NC3(C)C)C(=O)N2[C@H]1C(=O)O` [hetacillin potassium], the “motility inhibition on day 3” value was 18.4%. With `CCOC(=O)C1=C(C)NC(C)=C(C(=O)OC)C1c1cccc([N+](=O)[O-])c1` (stereo not given) [Nitrendipine] the “motility inhibition on day 3” value was 38.9%. `NS(=O)(=O)c1cc2c(cc1C(F)(F)F)NC(Cc1ccccc1)NS2(=O)=O` (stereo not given) [bendrofumethiazide] was tested, and the “motility inhibition on day 3” value was 19.4%. In the case of `CC(CN1c2ccccc2Sc2ccccc21)N(C)C` (stereo not given) [Promethazine hydrochloride], the “motility inhibition on day 3” value is reported as under 0%. For `O=C(c1ccc(OCCN2CCCCC2)cc1)c1c(-c2ccc(O)cc2)sc2cc(O)ccc12` [raloxifene hydrochloride], the “motility inhibition on day 3” value was 43.2%. In the case of `CCOC(=O)[C@H](CCc1ccccc1)N[C@@H](C)C(=O)N1CC2(C[C@H]1C(=O)O)SCCS2` [Spirapril Hydrochloride], the “motility inhibition on day 3” value is reported as 1%. For `Nc1nc(N)nc(-c2cc(Cl)ccc2Cl)n1` [irsogladine maleate], the “motility inhibition on day 3” value was under 0%. For `CCN1CCCC1CNC(=O)c1cc(S(=O)(=O)CC)c(N)cc1OC` (stereo not given) [amisulpride], the “motility inhibition on day 3” value was 16.3%. For `S=P(N1CC1)(N1CC1)N1CC1` [thiotepa], the “motility inhibition on day 3” value was under 0%. `CCCOc1ccc2nc(NC(=O)OC)[nH]c2c1` [oxybendazole] was tested, and the “motility inhibition on day 3” value was 3.36%. With `CCCCOc1ccc(OCCCN2CCOCC2)cc1` [pramoxine hydrochloride] the “motility inhibition on day 3” value was 26.2%. `CCCCOc1ccc(OCCCN2CCOCC2)cc1` [Pramoxine] was tested, and the “motility inhibition on day 3” value was 15.4%. For `CC1CCc2cc(F)cc3c(=O)c(C(=O)O)cn1c23` (stereo not given) [flumequine], the “motility inhibition on day 3” value was 23.9%. `O=C(NCC1CCCCN1)c1cc(OCC(F)(F)F)ccc1OCC(F)(F)F` (stereo not given) [Flecainide acetate] was tested, and the “motility inhibition on day 3” value was under 0%. For `COc1ccccc1OCCNCC(O)COc1cccc2[nH]c3ccccc3c12` (stereo not given) [carvedilol], the “motility inhibition on day 3” value was 13.1%. For `CC(C)c1nc(CN(C)C(=O)N[C@H](C(=O)N[C@@H](Cc2ccccc2)C[C@H](O)[C@H](Cc2ccccc2)NC(=O)OCc2cncs2)C(C)C)cs1` [ritonavir], the “motility inhibition on day 3” value was 51.9%. For `CC(=O)Oc1cccc(C(=O)O)c1OC(C)=O` [dipyrocetyl], the “motility inhibition on day 3” value was under 0%. In the case of `CC1OC1P(=O)(O)O` (stereo not given) [fosphomycin], the “motility inhibition on day 3” value is reported as 10.1%. `CC(C)[C@H]1CC[C@H](C(=O)N[C@H](Cc2ccccc2)C(=O)O)CC1` [nateglinide] was tested, and the “motility inhibition on day 3” value was 18.6%. `Nc1ccc(S(N)(=O)=O)cc1` [sulfanilamide] was tested, and the “motility inhibition on day 3” value was 21.1%. In the case of `CCN1CCC[C@H]1CNC(=O)c1cc(S(N)(=O)=O)ccc1OC`, the “motility inhibition on day 3” value is reported as 12%. For `CCOc1nc2cccc(C(=O)OC(C)OC(=O)OC3CCCCC3)c2n1Cc1ccc(-c2ccccc2-c2nn[nH]n2)cc1` (stereo not given) [candesartan cilextil], the “motility inhibition on day 3” value was 12.8%. For `CC(CCc1ccc(O)cc1)NCCc1ccc(O)c(O)c1` (stereo not given) [dobutamine hydrochloride], the “motility inhibition on day 3” value was 17.3%. With `CC(CCc1ccc(O)cc1)NCCc1ccc(O)c(O)c1` (stereo not given) [Dobutamine hydrochloride] the “motility inhibition on day 3” value was 12.4%. In the case of `CC[C@]12CCCN3CCc4c(n(c5ccccc45)[C@@](O)(C(=O)OC)C1)[C@@H]32` [vincamine], the “motility inhibition on day 3” value is reported as under 0%. With `CCC(C)(C)c1ccc(CC(C)CN2C[C@@H](C)O[C@@H](C)C2)cc1` (stereo not given in full) [amorolfine hydrochloride] the “motility inhibition on day 3” value was 4.39%. `CCCc1nc(C(C)(C)O)c(C(=O)OCc2oc(=O)oc2C)n1Cc1ccc(-c2ccccc2-c2nnn[nH]2)cc1` [olmesartan medoxomil] was tested, and the “motility inhibition on day 3” value was 15.7%. `Cn1c(=O)c2c(ncn2CC(O)CO)n(C)c1=O` (stereo not given) [dyphylline] was tested, and the “motility inhibition on day 3” value was 3.62%. `Nc1nccs1` [aminothiazole] was tested, and the “motility inhibition on day 3” value was under 0%. In the case of `NC(=O)c1cccnc1` [niacinamide], the “motility inhibition on day 3” value is reported as 9.13%. In the case of `C[C@@H]1CC2C3C[C@H](F)C4=CC(=O)C=C[C@]4(C)[C@@]3(F)[C@@H](O)C[C@]2(C)[C@@]1(O)C(=O)COC(=O)C(C)(C)C` (stereo not given in full) [flumethazone pivalate], the “motility inhibition on day 3” value is reported as 22.5%. In the case of `O=C(O)CCc1nc2ccccc2[nH]1` [procodazole], the “motility inhibition on day 3” value is reported as under 0%. In the case of `C=C(NC(=O)C(=C)NC(=O)c1csc(C2=N[C@@H]3c4csc(n4)[C@H]4NC(=O)c5csc(n5)[C@H]([C@](C)(O)[C@@H](C)O)NC(=O)[C@H]5CSC(=N5)/C(=C/C)NC(=O)[C@H]([C@@H](C)O)NC(=O)c5csc(n5)[C@]3(CC2)NC(=O)[C@H](C)NC(=O)C(=C)NC(=O)[C@H](C)NC(=O)[C@H]([C@@H](C)CC)N[C@@H]2C=Cc3c([C@H](C)O)cc(nc3[C@H]2O)C(=O)O[C@@H]4C)n1)C(N)=O` [thiostrepton], the “motility inhibition on day 3” value is reported as under 0%. In the case of `NC(=O)C1(N2CCCCC2)CCN(CCCC(=O)c2ccc(F)cc2)CC1` [pipamperone], the “motility inhibition on day 3” value is reported as under 0%. In the case of `CCCCCCCCCCCCCCCC[N+](C)(C)C` [cetrimonium bromide], the “motility inhibition on day 3” value is reported as 83.1%. For `CC1=C(C(=O)O)N2C(=O)[C@@H](NC(=O)[C@H](N)c3ccc(O)cc3)[C@H]2SC1` [cefadroxil], the “motility inhibition on day 3” value was 16.7%. In the case of `CC(C)(Oc1ccc(C2CC2(Cl)Cl)cc1)C(=O)O` (stereo not given) [ciprofibrate], the “motility inhibition on day 3” value is reported as 4.1%. In the case of `O=C(O)c1cc(O)c(O)c(O)c1` [gallic acid], the “motility inhibition on day 3” value is reported as under 0%. In the case of `CCN(CC)C(=O)N1CCN(C)CC1` [diethylcarbamazine citrate], the “motility inhibition on day 3” value is reported as 1.61%. For `O=P(O)(O)C(O)(Cc1cccnc1)P(=O)(O)O` [risedronate sodium], the “motility inhibition on day 3” value was under 0%. `COc1ccc(-n2nc(CCC(=O)N(C)O)cc2-c2ccc(Cl)cc2)cc1` [tepoxalin] was tested, and the “motility inhibition on day 3” value was 25.1%. For `CCCCC(CC)COC(=O)c1ccccc1O` (stereo not given) [octisalate], the “motility inhibition on day 3” value was under 0%. With `CCN(CCCc1ccccc1)CCCc1ccccc1` [alverine citrate] the “motility inhibition on day 3” value was 12.4%. In the case of `CC(=O)[C@H]1CC[C@H]2[C@@H]3CC=C4C[C@@H](OC(=O)CCC(=O)O)CC[C@]4(C)[C@H]3CC[C@]12C` [pregnenolone succinate], the “motility inhibition on day 3” value is reported as 2.1%. For `CC(CCc1ccc(O)cc1)NCC(O)c1ccc(O)cc1` (stereo not given) [ractopamine hydrochloride], the “motility inhibition on day 3” value was 9.81%. For `CC[C@]1(O)C[C@@H]2CN(CCc3c([nH]c4ccccc34)[C@@](C(=O)OC)(c3cc4c(cc3OC)N(C)[C@H]3[C@@](O)(C(=O)OC)[C@H](OC(C)=O)[C@]5(CC)C=CCN6CC[C@]43[C@@H]65)C2)C1` [vinblastine sulfate], the “motility inhibition on day 3” value was 47.4%. With `Clc1ccc(COC(Cn2ccnc2)c2ccc(Cl)cc2Cl)cc1` (stereo not given) [econazole nitrate] the “motility inhibition on day 3” value was 99.6%.
